Results as given in patent US20100272797A1, “Pharmaceutical Composition for Treating Hepatitis C Virus Infection Comprising HMG-COA Reductase Inhibitor and Bile Acid” (HANALL PHARMACEUTICAL COMPANY, LTD., priority 2007, published 2010).
For at least one compound, name, drawing or mass did not settle the structure.

System: EMC virus
Assay: Test Example 1: inhibitory effects on EMCV in A549 cells, MTT assay
Format: cell-based

Structure (SMILES): C[C@H](CCC(=O)O)[C@H]1CC[C@H]2[C@@H]3[C@@H](O)C[C@@H]4C[C@H](O)CC[C@]4(C)[C@H]3CC[C@]12C [ursodeoxycholic acid]
- direct inhibition of hepatitis C virus / antiviral effect: no direct inhibition of hepatitis C virus
